From a melanoma drug combination screen (doi:10.1371/journal.pone.0140310); values rounded.

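Human melanoma cell lines in 1,536-well plates were treated with two drugs together for 72 h, then fixed, stained and imaged. Values are the number of DAPI-stained nuclei as a percentage of the DMSO control: 100 is no effect, lower means fewer cells. Concentrations were fixed for each drug; these are the lower of two levels, a fifth of the higher. No replicate spread is given; individual values may be noisy.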
An unselected part of the screen is shown.
A dash means that no value is listed here.

Compounds and concentrations:
lapatinib, 0.8 µM: CS(=O)(=O)CCNCc1ccc(-c2ccc3ncnc(Nc4ccc(OCc5cccc(F)c5)c(Cl)c4)c3c2)o1
PLX4720, 0.08 µM: CCCS(=O)(=O)Nc1ccc(F)c(C(=O)c2c[nH]c3ncc(Cl)cc23)c1F
fludarabine, 0.2 µM: Nc1nc(F)nc2c1ncn2[C@@H]1O[C@H](CO)[C@@H](O)[C@@H]1O
crizotinib, 0.2 µM: C[C@@H](Oc1cc(-c2cnn(C3CCNCC3)c2)cnc1N)c1c(Cl)ccc(F)c1Cl
veliparib, 1.4 µM: C[C@]1(c2nc3c(C(N)=O)cccc3[nH]2)CCCN1
GSK650394, 0.16 µM: O=C(O)c1ccc(-c2c[nH]c3ncc(-c4ccccc4)cc23)cc1C1CCCC1
vincristine, 0.0001 µM: CC[C@]1(O)C[C@H]2CN(CCc3c([nH]c4ccccc34)[C@@](C(=O)OC)(c3cc4c(cc3OC)N(C=O)[C@H]3[C@@](O)(C(=O)OC)[C@H](OC(C)=O)[C@]5(CC)C=CCN6CC[C@]43[C@@H]65)C2)C1
PF-562271, 0.08 µM: CN(c1ncccc1CNc1nc(Nc2ccc3c(c2)CC(=O)N3)ncc1C(F)(F)F)S(C)(=O)=O
nilutamide, 1 µM: CC1(C)NC(=O)N(c2ccc([N+](=O)[O-])c(C(F)(F)F)c2)C1=O
MK-1775, 0.02 µM: C=CCn1c(=O)c2cnc(Nc3ccc(N4CCN(C)CC4)cc3)nc2n1-c1cccc(C(C)(C)O)n1
RKI-983, 0.4 µM: C[C@@H](N)c1ccc(C(=O)Nc2ccnc3[nH]ccc23)cc1
everolimus, 0.02 µM: CO[C@H]1C[C@@H]2CC[C@@H](C)[C@@](O)(O2)C(=O)C(=O)N2CCCC[C@H]2C(=O)O[C@H]([C@H](C)C[C@@H]2CC[C@@H](OCCO)[C@H](OC)C2)CC(=O)[C@H](C)/C=C(\C)[C@@H](O)[C@@H](OC)C(=O)[C@H](C)C[C@H](C)/C=C/C=C/C=C/1C
tanespimycin, 0.002 µM: C=CCNC1=C2C[C@@H](C)C[C@H](OC)[C@H](O)[C@@H](C)/C=C(\C)[C@H](OC(N)=O)[C@@H](OC)/C=C\C=C(/C)C(=O)NC(=CC1=O)C2=O

Pair	C32	G-361	LOX IMVI	COLO 829	A2058	COLO 792	IST-MEL1	LB2518-MEL	MEL-HO	A101D	COLO 800	A375	IPC-298
lapatinib and tanespimycin	90.3	99.5	121	82.2	93.8	93.8	99.4	152	98.4	93.2	97.5	1.6	109
MK-1775 and fludarabine	84.0	93.7	115	79.8	85.5	90.9	80.9	82.2	97.9	84.7	106	10.7	93.9
everolimus and veliparib	83.8	51.0	68.0	78.2	69.5	54.5	79.9	71.4	65.0	85.0	36.6	58.7	71.7
RKI-983 and fludarabine	97.5	93.8	87.8	95.2	79.2	84.7	98.4	132	88.8	85.2	72.2	10.2	99.5
nilutamide and fludarabine	89.6	97.8	113	108	91.4	87.0	88.3	99.1	91.1	98.3	117	14.7	94.3
lapatinib and PF-562271	73.6	96.7	73.7	76.2	77.9	81.2	97.2	107	96.0	96.1	102	60.5	101
everolimus and lapatinib	101	62.9	73.3	65.9	66.1	51.4	82.4	75.4	68.6	91.2	62.2	61.7	68.0
GSK650394 and everolimus	89.1	69.3	119	87.5	70.9	67.3	84.6	68.1	68.0	82.3	56.7	49.6	79.3
MK-1775 and everolimus	81.2	62.5	66.7	60.5	74.5	45.0	79.2	70.1	78.3	57.4	75.2	25.5	64.7
RKI-983 and lapatinib	94.8	88.9	72.8	94.9	86.2	64.9	106	110	81.7	81.2	177	80.8	99.2
lapatinib and vincristine	66.4	77.6	71.7	67.8	15.3	84.8	86.4	84.8	105	40.7	105	31.0	86.3
crizotinib and fludarabine	109	99.9	103	89.3	94.9	86.2	93.2	-	105	106	90.5	16.9	98.1
veliparib and PLX4720	80.6	74.7	128	91.3	103	111	91.8	94.0	86.6	95.7	97.3	79.1	86.2
fludarabine and tanespimycin	91.5	75.5	63.7	99.2	101	99.3	79.5	118	89.2	91.1	150	20.0	101
tanespimycin and crizotinib	81.6	97.9	97.3	93.1	102	113	99.8	-	115	97.2	88.7	127	91.3
PLX4720 and tanespimycin	67.6	98.1	85.2	95.6	111	108	94.3	105	81.7	88.2	22.7	102	98.8
everolimus and PLX4720	85.6	60.9	77.5	75.8	59.3	49.2	77.7	80.5	65.4	77.6	53.6	55.4	65.2
vincristine and tanespimycin	61.6	98.6	64.5	73.7	30.9	87.6	88.0	76.0	98.0	60.9	74.5	88.1	93.6
vincristine and RKI-983	89.0	108	54.5	70.2	6.2	111	93.8	88.5	84.9	61.6	73.3	51.3	100
fludarabine and PF-562271	73.8	94.7	83.4	61.8	80.0	70.9	92.2	76.0	92.1	98.9	60.0	12.2	94.2
GSK650394 and crizotinib	91.9	112	102	105	88.5	103	97.6	98.5	92.5	90.6	71.6	94.0	98.3
PF-562271 and vincristine	79.9	109	84.5	58.7	32.1	97.4	90.9	89.5	90.6	65.6	150	70.7	95.4
GSK650394 and fludarabine	92.5	94.0	148	109	93.1	92.0	79.8	110	86.9	87.3	97.4	11.6	92.3
everolimus and RKI-983	97.2	51.5	50.9	71.9	57.7	53.4	59.2	86.4	66.1	65.8	90.5	60.9	73.8
veliparib and PF-562271	85.0	89.6	95.2	73.2	72.2	71.2	94.7	101	86.3	97.2	81.1	84.3	106

Some entries from above, unchanged:

| Pair | C32 | G-361 | LOX IMVI | COLO 829 | A2058 | COLO 792 | IST-MEL1 | LB2518-MEL | MEL-HO | A101D | COLO 800 | A375 | IPC-298 |
|---|---|---|---|---|---|---|---|---|---|---|---|---|---|
| veliparib and PF-562271 | 85.0 | 89.6 | 95.2 | 73.2 | 72.2 | 71.2 | 94.7 | 101 | 86.3 | 97.2 | 81.1 | 84.3 | 106 |
| vincristine and tanespimycin | 61.6 | 98.6 | 64.5 | 73.7 | 30.9 | 87.6 | 88.0 | 76.0 | 98.0 | 60.9 | 74.5 | 88.1 | 93.6 |